Measured values: the supplement of paper PMC8728848
The other results are listed elsewhere or left out.

Tests used:
Experiment in all cases: glycan array binding signal (z-score within array); higher = stronger binding
Details in all cases: glycan notation: IUPAC condensed, linker removed
[1] = target: Gal(b1-4)GlcNAc(b1-2)Man(a1-3)[GlcNAc(b1-2)Man(a1-6)]Man(b1-4)GlcNAc(b1-4)GlcNAc
Outline: (§1)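 The binding signal is a Z-score computed within each array and averaged over linkers. Arrays of the same protein sequence at different concentrations or buffers were also averaged together. Data originate from 3228 arrays in the Consortium for Functional Glycomics database, kept only where the protein sequence was available.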

[2] = target: Gal(b1-4)GlcNAc(b1-2)Man(a1-3)[GlcNAc(b1-4)][Gal(b1-4)GlcNAc(b1-2)Man(a1-6)]Man(b1-4)GlcNAc(b1-4)GlcNAc
Outline: as §1

[3] = target: Gal(b1-4)GlcNAc(b1-2)Man(a1-3)[Man(a1-6)]Man(b1-4)GlcNAc(b1-4)GlcNAc
Outline: as §1

[4] = target: Gal(b1-4)GlcNAc(b1-2)Man(a1-6)Man(b1-4)GlcNAc(b1-4)GlcNAc
Outline: as §1

[5] = target: Gal(b1-4)GlcNAc(b1-2)Man(a1-6)[GlcNAc(b1-2)Man(a1-3)]Man(b1-4)GlcNAc(b1-4)GlcNAc
Outline: as §1

[6] = target: Gal(b1-4)GlcNAc(b1-2)Man(a1-6)[Man(a1-3)]Man(b1-4)GlcNAc(b1-4)GlcNAc
Outline: as §1

[7] = target: Gal(b1-4)GlcNAc(b1-2)[Gal(b1-4)GlcNAc(b1-4)]Man(a1-3)[Gal(b1-4)GlcNAc(b1-2)Man(a1-6)]Man(b1-4)GlcNAc(b1-4)GlcNAc
Outline: as §1

[8] = target: Gal(b1-4)GlcNAc(b1-2)[Gal(b1-4)GlcNAc(b1-4)]Man(a1-3)[Gal(b1-4)GlcNAc(b1-2)[Gal(b1-4)GlcNAc(b1-6)]Man(a1-6)]Man(b1-4)GlcNAc(b1-4)GlcNAc
Outline: as §1

[9] = target: Gal(b1-4)GlcNAc(b1-2)[Gal(b1-4)GlcNAc(b1-4)]Man(a1-3)[GlcNAc(b1-4)][Gal(b1-4)GlcNAc(b1-2)Man(a1-6)]Man(b1-4)GlcNAc(b1-4)GlcNAc
Outline: as §1

[10] = target: Gal(b1-4)GlcNAc(b1-2)[Gal(b1-4)GlcNAc(b1-4)]Man(a1-3)[GlcNAc(b1-4)][Gal(b1-4)GlcNAc(b1-2)[Gal(b1-4)GlcNAc(b1-6)]Man(a1-6)]Man(b1-4)GlcNAc(b1-4)GlcNAc
Outline: as §1

[11] = target: Gal(b1-4)GlcNAc(b1-2)[Gal(b1-4)GlcNAc(b1-6)]Man(a1-6)[Gal(b1-4)GlcNAc(b1-2)Man(a1-3)]Man(b1-4)GlcNAc(b1-4)GlcNAc
Outline: as §1

[12] = target: Gal(b1-4)GlcNAc(b1-2)[Gal(b1-4)GlcNAc(b1-6)]Man(a1-6)[Gal(b1-4)GlcNAc(b1-2)Man(a1-3)]Man(b1-4)GlcNAc(b1-4)[Fuc(a1-6)]GlcNAc
Outline: as §1

[13] = target: Gal(b1-4)GlcNAc(b1-2)[Gal(b1-4)GlcNAc(b1-6)]Man(a1-6)[GlcNAc(b1-4)][Gal(b1-4)GlcNAc(b1-2)Man(a1-3)]Man(b1-4)GlcNAc(b1-4)GlcNAc
Outline: as §1

[14] = target: Gal(b1-4)GlcNAc(b1-2)[Gal(b1-4)GlcNAc(b1-6)]Man(a1-6)[GlcNAc(b1-4)][Gal(b1-4)GlcNAc(b1-2)[Gal(b1-4)GlcNAc(b1-4)]Man(a1-3)]Man(b1-4)GlcNAc(b1-4)[Fuc(a1-6)]GlcNAc
Outline: as §1

[15] = target: Gal(b1-4)GlcNAc(b1-3)Gal(b1-3)GalNAc
Outline: as §1

[16] = target: Gal(b1-4)GlcNAc(b1-3)Gal(b1-3)GlcNAc
Outline: as §1

[17] = target: Gal(b1-4)GlcNAc(b1-3)Gal(b1-4)Glc
Outline: as §1

[18] = target: Gal(b1-4)GlcNAc(b1-3)Gal(b1-4)GlcNAc
Outline: as §1

[19] = target: Gal(b1-4)GlcNAc(b1-3)Gal(b1-4)GlcNAc(b1-2)Man(a1-3)[Gal(b1-4)GlcNAc(b1-3)Gal(b1-4)GlcNAc(b1-2)Man(a1-6)]Man(b1-4)GlcNAc(b1-4)GlcNAc
Outline: as §1

B1: GST-Gap1 (Streptococcus parasanguinis), A1C3L5 (protein)
chain: MFYFVPSWYNGQRQWYYDTPWWFRVKNRMTFDDSVNQVKMFLQGQEEIGLMILNYQPQLRYFLHKQNIFGIYYWSFFDDIQNITRSYTKIIHLKDLNWPEGCEFLYSPFAVVVRLKGEIFAIVNYAEDGNLHSVSFQKNGKVTKDYIFDDRGFLSSILYYDIDERPLYQDYLNINGVWQVREFLKKENDPTPILMINDFSDQTFSKKYYNGWEELIKERLAIFQNNHVENEDVFVLASDTQHNQLVSSIFKEHRKIYSFFGNRFNLENLGQDRISINDATFLVVDTEKNEELLRKTCENLVFKSIPIVRLSPFDSRLRLGHSQTVKEQIIYFHIDNIELDELYSVIAIILELMTLHLDIELRIVTFRQDFQLDLLKTWIIDFIKTNHFEDLLFKQISEGENEIEDEGEIELSRIAMECFTNENQIIKCLDTARLVIDLGIEPDLYTQIASISAGIPQINRVSSDYVIHQKNGLVISDISKLSSAIEFYFDGLFNWNEALIYAVRKMSDYTSGKILKQWKGMLKKK
glycan array binding signal (z-score) [1]: -1.19 | glycan array binding signal (z-score) [2]: -0.016 | glycan array binding signal (z-score) [3]: 1.07 | glycan array binding signal (z-score) [4]: 0.064 | glycan array binding signal (z-score) [5]: -0.328 | glycan array binding signal (z-score) [6]: 0.061 | glycan array binding signal (z-score) [7]: -0.353 | glycan array binding signal (z-score) [8]: -0.809 | glycan array binding signal (z-score) [9]: 0.833 | glycan array binding signal (z-score) [10]: 0.071 | glycan array binding signal (z-score) [11]: 0.424 | glycan array binding signal (z-score) [12]: 1.31 | glycan array binding signal (z-score) [13]: 0.726 | glycan array binding signal (z-score) [14]: 0.134 | glycan array binding signal (z-score) [15]: -0.862 | glycan array binding signal (z-score) [16]: 0.244 | glycan array binding signal (z-score) [17]: -0.33 | glycan array binding signal (z-score) [18]: -0.46 | glycan array binding signal (z-score) [19]: 4.81
